# Experimental data published in the supplement of paper PMC12067093, “Discovery and optimisation of a covalent ligand for TRIM25 and its application to targeted protein ubiquitination” (Chemical Science, 2025).
# The other results are listed elsewhere or left out.
# Compound: Cc1cc(ccc1-c1ccccc1)C(=O)N1CCCN(CC1)C(=O)CCl [compound 10]
# Experiment: probe-labelled cysteine peptide fold change vs DMSO (competition) (log2 fold change); higher = less target engagement (more negative = stronger competition)
# Conditions: 10 µM; THP-1; incubation time: 4 h
# 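Also: competitive profiling in live THP-1 cells: cysteine peptides tagged with an iodoacetamide desthiobiotin (IA-DTB) probe, intensity after compound treatment relative to DMSO-treated cells.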
row,Target,probe-labelled cysteine peptide fold change
1,NAA40_Q86UY6_26_AAMDAVCAK (UniProt Q86UY6),-0.131
2,NCAPG2_Q86XI2_826_AFGLHCR (UniProt Q86XI2),-0.0366
3,NCBP1_Q09161_477_ILDIVPPTFSALCPANPTCIYK (UniProt Q09161),0.202
4,MYO1G_B0I1T2_831_QDWGCR (UniProt B0I1T2),-0.053
5,NAA10_P41227_194_GNSPPSSGEACR (UniProt P41227),0.00916
6,MZF1_P28698_323_SEQDPTDEDPCR (UniProt P28698),-0.0388
7,NCF2_P19878_499_VNEEWLEGECK (UniProt P19878),0.102
8,NCAPG_Q9BPX3_667_TLHCEGTEINSDDEQESK (UniProt Q9BPX3),-0.265
9,NAPG_Q99747_193_EIENYPTCYK (UniProt Q99747),0.06
10,NCAPD2_Q15021_1249_MLDNFDCFGDK (UniProt Q15021),-0.0542
11,MYO1G_B0I1T2_472_GILAVLDEACSSAGTITDR (UniProt B0I1T2),0.171
12,NAA15_Q9BXJ9_817_NLQTCMEVLEALYDGSLGDCK (UniProt Q9BXJ9),0.000519
13,NADK2_Q4G0N4_311_SSGLNLCTGTGSK (UniProt Q4G0N4),-0.0936
14,MYO9B_Q13459_152_QQADFDDLCNLPELTEGNLLK (UniProt Q13459),-0.132
15,NCAPH2_Q6IBW4_535_FPQLNEWCPFAELVAGQPAFEVCR (UniProt Q6IBW4),-0.239
16,NAA25_Q14CX7_381_VFVDLLPATQCTK (UniProt Q14CX7),-0.214
17,MYO6_Q9UM54_1110_DTINTSCDIELLAACR (UniProt Q9UM54),0.111
18,NAA10_P41227_21_NARPEDLMNMQHCNLLCLPENYQMK (UniProt P41227),0.122
19,MYOF_Q9NZM1_1131_HSATTVFGANTPIVSCNFDR (UniProt Q9NZM1),-0.0575
20,MYO9B_Q13459_1876_ITTCVEMLIK (UniProt Q13459),0.0944

# Same assay, conditions: 50 µM; THP-1; incubation time: 4 h
row,Target,probe-labelled cysteine peptide fold change
1,MYO9B_Q13459_34_REQAAYHLHIYPQLSTTESQASCR (UniProt Q13459),-0.183
2,NCALD_P61601_38_DCPSGHLSMEEFKK (UniProt P61601),-0.0319
3,NAT10_Q9H0A0_746_QTPNDLTGEHSCIMLK (UniProt Q9H0A0),0.0179
4,NAPRT_Q6XQN6_484_LCLQQGQLCEPLPSLAESR (UniProt Q6XQN6),0.0213
5,NCAPD2_Q15021_421_SVLVCK (UniProt Q15021),0.162
6,NCEH1_Q6PIU2_345_TYILTCEHDVLRDDGIMYAK (UniProt Q6PIU2),0.0255
7,NCAPH_Q15003_267_TAASFDECSTAGVFLSTLHCQDYR (UniProt Q15003),-0.00723
8,NASP_P49321_708_KPTDGASSSNCVTDISHLVR (UniProt P49321),-0.111
9,MYO9B_Q13459_62_CYVLVEVK (UniProt Q13459),-0.198
10,NCF2_P19878_514_VFVEDCATTDLESTR (UniProt P19878),0.0215
11,NARS_O43776_511_YGTCPHGGYGLGLER (UniProt O43776),0.139
12,NCAPG2_Q86XI2_285_ILEAIENDCIQDFMFHGIHLPR (UniProt Q86XI2),0.21
13,NACC1_Q96RE7_464_ESEMNAIAADMCTNAR (UniProt Q96RE7),-0.0747
14,NBAS_A2RRP1_1777_LQYYFTLLENCGCADLGNCAIKPETHIR (UniProt A2RRP1),0.102
15,NANP_Q8TBE9_49_YHYKEEAEIICDK (UniProt Q8TBE9),-0.162
16,NAA16_Q6N069_465_EAEEMCSK (UniProt Q6N069),-0.0615
17,NAA40_Q86UY6_26_AAMDAVCAK (UniProt Q86UY6),-0.236
18,NCAPG2_Q86XI2_826_AFGLHCR (UniProt Q86XI2),0.0971

row,Target,probe-labelled cysteine peptide fold change
1,NCBP1_Q09161_477_ILDIVPPTFSALCPANPTCIYK (UniProt Q09161),-0.118
2,NAA10_P41227_194_GNSPPSSGEACR (UniProt P41227),0.0825
3,MYO18A_Q92614_1155_AVEELLECLDLEK (UniProt Q92614),0.0501
4,MZF1_P28698_323_SEQDPTDEDPCR (UniProt P28698),0.0171
5,NCF2_P19878_499_VNEEWLEGECK (UniProt P19878),-0.0552
6,NCAPG_Q9BPX3_667_TLHCEGTEINSDDEQESK (UniProt Q9BPX3),-0.36
7,NAPG_Q99747_193_EIENYPTCYK (UniProt Q99747),0.0425
8,NCAPD2_Q15021_1249_MLDNFDCFGDK (UniProt Q15021),0.0509
9,MYO1G_B0I1T2_472_GILAVLDEACSSAGTITDR (UniProt B0I1T2),0.136
10,NAA15_Q9BXJ9_817_NLQTCMEVLEALYDGSLGDCK (UniProt Q9BXJ9),-0.0973
11,NADK2_Q4G0N4_311_SSGLNLCTGTGSK (UniProt Q4G0N4),-0.192
12,MYO9B_Q13459_152_QQADFDDLCNLPELTEGNLLK (UniProt Q13459),0.199
13,NCAPH2_Q6IBW4_535_FPQLNEWCPFAELVAGQPAFEVCR (UniProt Q6IBW4),0.00304
14,NAA25_Q14CX7_381_VFVDLLPATQCTK (UniProt Q14CX7),-0.0518
15,MYO6_Q9UM54_1110_DTINTSCDIELLAACR (UniProt Q9UM54),0.0634
16,NAA10_P41227_21_NARPEDLMNMQHCNLLCLPENYQMK (UniProt P41227),-0.163
17,MYOF_Q9NZM1_1131_HSATTVFGANTPIVSCNFDR (UniProt Q9NZM1),0.00786
18,MYO9B_Q13459_1876_ITTCVEMLIK (UniProt Q13459),-0.0605
